Measurements reported in PubChem BioAssay AID686943 (Drosophila RNAi Screening Center, 2013).
Aim: 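Search across the genome for regulators of signalling from receptor tyrosine kinase to ERK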 (primary screen). System: Drosophila S2R+ haemocyte-like cells expressing YFP-tagged ERK (Rolled). Knock-down reagent: long dsRNA against Drosophila genes. Challenge: insulin stimulation versus unstimulated cells; dose and duration not given. Measured: 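Antibody staining for doubly phosphorylated ERK divided by ERK-YFP signal, as plate z-scores, in insulin-treated and untreated cells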. Reading the numbers: replicate 1, z-score of dpERK with insulin and replicate 2, z-score of dpERK with insulin: higher = more active ERK per ERK-YFP after insulin; replicate 1, z-score of dpERK under basal conditions: higher = more basal active ERK per ERK-YFP.
The screen tested about 23,000 reagents; below is an unselected part of those that have a named target and a result. 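Extra replicates exist only for a retested subset of genes; insulin dose and duration not given; both raised and lowered dpERK matter.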 Not all columns of the deposit are shown. Not given: the amount of reagent, the time to read-out.

| target gene | amplicon | replicate 1, z-score of dpERK with insulin | replicate 2, z-score of dpERK with insulin | replicate 1, z-score of dpERK under basal conditions |
| --- | --- | --- | --- | --- |
| E(Pc) (Enhancer of Polycomb) | DRSC05281 | -3.7 | -4.49 | -0.94 |
| E(Pc) (Enhancer of Polycomb) | DRSC07408 | -3.48 | -4.48 | -2.02 |
| CG7271 | DRSC22561 | -0.74 | 1.41 | 0.17 |
| Rgk3 (Rad, Gem/Kir family member 3) | DRSC04250 | 0.95 | 0.75 | 0.58 |
| Rgk3 (Rad, Gem/Kir family member 3) | DRSC04251 | 0.82 | 0.66 | 0.34 |
| Rgk3 (Rad, Gem/Kir family member 3) | DRSC04254 | -0.55 | 0.28 | -1.33 |
| Rgk3 (Rad, Gem/Kir family member 3) | DRSC04255 | -0.29 | -0.75 | 0.03 |
| CG31681 | DRSC00107 | 0.31 | 0.73 | 0.68 |
| Cen (Centrocortin) | DRSC02704 | 0.95 | 0.9 | 1.01 |
| fiz (fezzik) | DRSC20188 | 1.43 | 0.12 | -0.03 |
| Pino (Pinocchio) | DRSC00038 | -3.91 | 0.81 | -4.21 |
| Pino (Pinocchio) | DRSC00662 | -0.5 | -1.06 | -0.14 |
| CG42784 | DRSC02534 | -0.21 | -0.41 | -0.12 |
| CG42784 | DRSC02535 | -1.15 | -2.11 | -1.71 |
| CG42784 | DRSC22272 | 3.15 | 0.89 | -0.33 |
| CG42784 | DRSC22804 | -0.18 | 0.06 | 0.86 |
| Bap55 (Brahma associated protein 55kD) | DRSC07000 | -1.56 | -2.18 | -0.66 |
| CG4537 | DRSC02756 | -0.31 | -0.31 | -0.15 |
| CG31909 | DRSC22180 | 0.11 | 0.16 | -1.02 |
| ND-B17.2 (NADH dehydrogenase (ubiquinone) B17.2 subunit) | DRSC00577 | 1.28 | -0.55 | -0.3 |
| Rop (Ras opposite) | DRSC08693 | 0.48 | 0.21 | -0.33 |
| CG13455 | DRSC10002 | -0.15 | -0.02 | 0.12 |
| Daao1 (D-amino acid oxidase 1) | DRSC06131 | 0.54 | 0.15 | -0.29 |

Limited to “replicate 1, z-score of dpERK under basal conditions” (2 entries from above):
Cen (Centrocortin) [DRSC02704]: 1.01
fiz (fezzik) [DRSC20188]: -0.03
